Measured data: PubChem BioAssay AID1053208 (Peter MacCallum Cancer Centre, 2014)

Aim: 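Find knock-downs that sensitise mouse osteosarcoma cells to doxorubicin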 (primary screen)
System: mouse osteosarcoma cells, early-passage culture from an engineered mouse model of fibroblastic bone tumour
Reagents: siRNA pool against mouse genes, 40 nM
Duration: about 120 h (48 h before drug, then 72 h with drug)
Challenge: doxorubicin 100 nM for 72 h, roughly 30-40% inhibitory dose
Read-out: 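Viability read as ATP luminescence after 72 h of 100 nM doxorubicin or none, duplicate wells averaged, scaled to non-targeting siRNA, then expressed as robust z-scores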
Direction: viability z-score with doxorubicin: higher = more viable cells under doxorubicin; viability z-score without drug: higher = more viable cells with knock-down alone; z-score of drug to no-drug ratio: higher = less drug sensitisation by knock-down
Hit rule: 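a pool counts as active when its viability z-score with doxorubicin is -2 or below and its z-score without drug lies between -2 and 2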
In all, the deposit lists about 17,000 reagents; below is an unselected part. 788 of them (4.7%) were called active. 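Calls rest on z-score classes alone; an extra cut-off of viability at most 70% of control was not applied to them.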 Further read-outs or replicates are left out here.

Gene | combined z-score class | viability z-score with doxorubicin | viability z-score without drug | z-score of drug to no-drug ratio | outcome
Adpgk | no change with or without drug | 0.9 | 0.17 | 0.9 | inactive
Slc15a1 | no change with or without drug | -0.22 | -1.18 | 0.79 | inactive
Arel1 | high cell count with and without drug | 2.25 | 2.19 | 0.9 | inactive
Top3a | no change with or without drug | 0.45 | 0.34 | 0.34 | inactive
Aldh1a2 | no change with or without drug | -1.01 | 0.34 | -1.12 | inactive
Pcdhb13 | high cell count with doxorubicin only | 2.02 | 1.01 | 1.46 | inactive
Or4p22 | no change with or without drug | 0 | -1.35 | 1.12 | inactive
Olfr908 | no change with or without drug | 0 | 0.17 | 0 | inactive
Aldh9a1 | no change with or without drug | 1.01 | 0.51 | 0.79 | inactive
Eef2 | no change with or without drug | -1.12 | -1.18 | -0.34 | inactive
Cap2 | no change with or without drug | -1.46 | -1.18 | -0.67 | inactive
Or7e178 | no change with or without drug | 0.34 | 0.17 | 0.34 | inactive
Napb | no change with or without drug | 0.9 | 0.51 | 0.67 | inactive
Kcng4 | no change with or without drug | -0.22 | -0.84 | 0.45 | inactive
Ears2 | no change with or without drug | -1.12 | -0.51 | -0.79 | inactive
Ngp | no change with or without drug | 0.9 | 1.18 | 0.22 | inactive

Continued (3 carried over from the part before).
Gene | combined z-score class | viability z-score with doxorubicin | viability z-score without drug | z-score of drug to no-drug ratio | outcome
Kcng4 | no change with or without drug | -0.22 | -0.84 | 0.45 | inactive
Ears2 | no change with or without drug | -1.12 | -0.51 | -0.79 | inactive
Ngp | no change with or without drug | 0.9 | 1.18 | 0.22 | inactive
Srp19 | low cell count without drug only | -1.35 | -2.36 | 0.34 | inactive
Naa25 | low cell count without drug only | -0.11 | -2.19 | 1.69 | inactive
Fbxl21 | no change with or without drug | 0.67 | 1.85 | -0.45 | inactive
Naip5 | no change with or without drug | 0.56 | 0.84 | 0.11 | inactive
F2rl2 | no change with or without drug | -0.67 | -1.18 | 0.22 | inactive
4930474M22Rik | no change with or without drug | -1.35 | -0.17 | -1.24 | inactive
Dyrk4 | no change with or without drug | -0.67 | -0.51 | -0.22 | inactive
Marveld3 | no change with or without drug | -0.11 | -0.51 | 0.34 | inactive
Sptlc2 | no change with or without drug | -0.67 | 0 | -0.56 | inactive
Vmn1r178 | low cell count with doxorubicin only | -2.25 | -0.67 | -1.91 | active
Cenpn | no change with or without drug | -1.24 | -0.17 | -1.12 | inactive
Ccbe1 | no change with or without drug | 0.22 | 1.18 | -0.45 | inactive
Igfbp4 | no change with or without drug | -0.9 | -1.18 | 0 | inactive
Edil3 | no change with or without drug | -0.56 | 0.67 | -0.9 | inactive
Spc25 | low cell count with and without drug | -2.92 | -5.06 | 0.79 | inactive
Gal3st1 | no change with or without drug | 0.9 | 1.35 | 0.11 | inactive
Plagl1 | no change with or without drug | -0.22 | -0.51 | 0.22 | inactive
Smarcal1 | no change with or without drug | -0.45 | -1.52 | 0.79 | inactive
